Measured values: patent publication US7919579B2, “Imaging and therapeutic targeting of prostate and bladder tissues” (The Board of Regents of the University of Texas System, priority 2006, dated 2011)

Test system: PCa cells (LNCaP, C4-2, LAPC4 and PC3)
Assay: cellular localization of peptides by fluorescence microscopy
Assay type: cell-based
Settings: 5 μM peptide, 30 minutes; four PCa cells

Substance	cellular localization
^FITC-G- RRRRRRRRRRR -GG-FQLRQAALVASRKGE [R11AAL]	localized in the cytosol with few nuclear staining
^FITC-G-RRRRRRRRRRR-GGG-FQLRQPPLVPSRKGE (GRRRRRRRRRRRGGGFQLRQPPLVPSRKGE) [R11PPL, FITC-R11 conjugated with PPL (DOC-2/DAB2 PR domain) at C-terminus]	localized in the cytosol with few nuclear staining
